Measured values as given in the supplement of paper PMC10849652.
Some of the results follow.

The chains behind the UniProt entries cited, without tags or fusion partners. Where a name states a change or a piece, a line headed by the entry shows the natural chain unless it says otherwise.
UniProt Q9Y4D7: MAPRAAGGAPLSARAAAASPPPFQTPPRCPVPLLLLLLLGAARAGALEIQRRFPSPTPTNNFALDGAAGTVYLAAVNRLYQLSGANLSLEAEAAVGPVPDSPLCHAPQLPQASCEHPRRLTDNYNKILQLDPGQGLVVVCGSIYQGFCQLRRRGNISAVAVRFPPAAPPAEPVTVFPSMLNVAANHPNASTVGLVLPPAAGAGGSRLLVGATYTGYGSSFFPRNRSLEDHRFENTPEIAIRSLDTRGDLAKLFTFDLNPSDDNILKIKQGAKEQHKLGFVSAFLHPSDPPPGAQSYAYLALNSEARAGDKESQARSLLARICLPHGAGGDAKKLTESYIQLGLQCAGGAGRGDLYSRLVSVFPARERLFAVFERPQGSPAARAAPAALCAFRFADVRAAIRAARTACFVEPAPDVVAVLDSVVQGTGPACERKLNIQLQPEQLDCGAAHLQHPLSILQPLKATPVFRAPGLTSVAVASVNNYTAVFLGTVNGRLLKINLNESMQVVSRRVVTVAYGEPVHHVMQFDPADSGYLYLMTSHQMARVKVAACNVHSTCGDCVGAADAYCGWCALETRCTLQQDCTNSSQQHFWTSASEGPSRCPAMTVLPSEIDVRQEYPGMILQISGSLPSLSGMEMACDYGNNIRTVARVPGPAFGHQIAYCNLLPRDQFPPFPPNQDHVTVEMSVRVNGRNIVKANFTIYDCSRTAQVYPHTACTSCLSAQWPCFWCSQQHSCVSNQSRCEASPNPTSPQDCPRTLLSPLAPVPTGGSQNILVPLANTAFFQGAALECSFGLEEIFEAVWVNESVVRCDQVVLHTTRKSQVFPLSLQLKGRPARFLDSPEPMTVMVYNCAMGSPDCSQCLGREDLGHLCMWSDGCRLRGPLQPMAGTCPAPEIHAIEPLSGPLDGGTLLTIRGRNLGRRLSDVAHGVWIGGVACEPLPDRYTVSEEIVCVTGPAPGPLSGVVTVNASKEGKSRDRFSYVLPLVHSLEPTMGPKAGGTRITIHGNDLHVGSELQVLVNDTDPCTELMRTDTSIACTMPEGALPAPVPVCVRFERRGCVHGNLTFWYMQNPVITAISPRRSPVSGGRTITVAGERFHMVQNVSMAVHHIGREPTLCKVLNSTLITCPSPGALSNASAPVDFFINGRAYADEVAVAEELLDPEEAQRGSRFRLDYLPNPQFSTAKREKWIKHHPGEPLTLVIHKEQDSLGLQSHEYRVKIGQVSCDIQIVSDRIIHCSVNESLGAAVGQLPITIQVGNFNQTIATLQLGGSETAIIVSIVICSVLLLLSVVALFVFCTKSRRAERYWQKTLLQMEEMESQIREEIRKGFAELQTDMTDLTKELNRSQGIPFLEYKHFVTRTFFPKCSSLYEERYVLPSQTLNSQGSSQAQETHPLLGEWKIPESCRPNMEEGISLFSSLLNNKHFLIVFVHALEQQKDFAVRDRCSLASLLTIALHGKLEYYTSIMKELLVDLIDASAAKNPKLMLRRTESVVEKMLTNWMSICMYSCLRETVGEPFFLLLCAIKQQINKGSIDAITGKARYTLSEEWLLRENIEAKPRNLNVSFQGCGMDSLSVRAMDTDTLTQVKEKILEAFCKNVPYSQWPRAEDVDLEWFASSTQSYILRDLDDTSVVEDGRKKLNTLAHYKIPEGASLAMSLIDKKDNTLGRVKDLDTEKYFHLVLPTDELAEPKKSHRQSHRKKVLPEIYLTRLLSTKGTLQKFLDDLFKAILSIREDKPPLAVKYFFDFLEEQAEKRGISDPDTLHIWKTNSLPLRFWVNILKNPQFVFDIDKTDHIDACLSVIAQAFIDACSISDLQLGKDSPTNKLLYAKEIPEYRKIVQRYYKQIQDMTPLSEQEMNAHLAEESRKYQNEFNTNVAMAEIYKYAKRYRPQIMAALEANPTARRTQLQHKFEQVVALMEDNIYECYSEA
UniProt Q9NW61: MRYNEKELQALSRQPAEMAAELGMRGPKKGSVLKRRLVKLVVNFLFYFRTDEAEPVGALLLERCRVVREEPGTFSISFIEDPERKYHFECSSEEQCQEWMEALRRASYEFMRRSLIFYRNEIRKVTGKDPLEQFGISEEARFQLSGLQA
UniProt Q9NUX5: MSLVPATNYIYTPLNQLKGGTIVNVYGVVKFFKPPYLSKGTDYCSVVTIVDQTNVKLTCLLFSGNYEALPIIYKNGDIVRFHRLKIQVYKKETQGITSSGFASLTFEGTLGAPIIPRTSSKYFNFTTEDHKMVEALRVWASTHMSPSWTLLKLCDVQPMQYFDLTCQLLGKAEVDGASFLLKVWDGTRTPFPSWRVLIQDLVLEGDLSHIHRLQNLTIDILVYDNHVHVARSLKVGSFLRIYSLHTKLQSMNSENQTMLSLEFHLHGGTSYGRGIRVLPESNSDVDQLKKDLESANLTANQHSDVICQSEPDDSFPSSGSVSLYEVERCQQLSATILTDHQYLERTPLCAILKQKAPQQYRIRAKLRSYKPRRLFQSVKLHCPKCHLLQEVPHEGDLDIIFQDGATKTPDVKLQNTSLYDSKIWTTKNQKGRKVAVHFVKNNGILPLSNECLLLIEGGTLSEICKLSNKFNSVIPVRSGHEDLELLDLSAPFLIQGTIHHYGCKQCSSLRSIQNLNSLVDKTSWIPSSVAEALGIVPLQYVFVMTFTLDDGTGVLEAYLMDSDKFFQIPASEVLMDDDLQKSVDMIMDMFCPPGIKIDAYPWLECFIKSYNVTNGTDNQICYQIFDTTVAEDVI
UniProt Q9NRY6: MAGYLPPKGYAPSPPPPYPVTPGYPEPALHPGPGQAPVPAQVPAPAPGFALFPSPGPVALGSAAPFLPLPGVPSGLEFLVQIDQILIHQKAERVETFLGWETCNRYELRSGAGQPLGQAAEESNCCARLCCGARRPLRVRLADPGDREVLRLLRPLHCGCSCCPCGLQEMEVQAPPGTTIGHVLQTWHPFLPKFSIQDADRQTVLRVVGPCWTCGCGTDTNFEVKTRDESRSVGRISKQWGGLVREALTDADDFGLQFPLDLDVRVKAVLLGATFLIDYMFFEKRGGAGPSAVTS
UniProt Q9BT43: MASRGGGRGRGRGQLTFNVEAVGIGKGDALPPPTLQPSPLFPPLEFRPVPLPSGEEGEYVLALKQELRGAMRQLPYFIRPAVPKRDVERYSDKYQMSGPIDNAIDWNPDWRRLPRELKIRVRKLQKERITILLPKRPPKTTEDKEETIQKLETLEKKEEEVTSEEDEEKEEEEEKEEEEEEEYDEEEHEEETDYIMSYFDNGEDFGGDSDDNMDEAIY
UniProt P62937, whole entry, looked up: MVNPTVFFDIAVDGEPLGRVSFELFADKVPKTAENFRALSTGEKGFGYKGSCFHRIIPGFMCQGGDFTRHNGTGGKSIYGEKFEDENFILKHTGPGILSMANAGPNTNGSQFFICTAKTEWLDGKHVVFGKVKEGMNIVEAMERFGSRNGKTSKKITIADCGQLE
UniProt O00592: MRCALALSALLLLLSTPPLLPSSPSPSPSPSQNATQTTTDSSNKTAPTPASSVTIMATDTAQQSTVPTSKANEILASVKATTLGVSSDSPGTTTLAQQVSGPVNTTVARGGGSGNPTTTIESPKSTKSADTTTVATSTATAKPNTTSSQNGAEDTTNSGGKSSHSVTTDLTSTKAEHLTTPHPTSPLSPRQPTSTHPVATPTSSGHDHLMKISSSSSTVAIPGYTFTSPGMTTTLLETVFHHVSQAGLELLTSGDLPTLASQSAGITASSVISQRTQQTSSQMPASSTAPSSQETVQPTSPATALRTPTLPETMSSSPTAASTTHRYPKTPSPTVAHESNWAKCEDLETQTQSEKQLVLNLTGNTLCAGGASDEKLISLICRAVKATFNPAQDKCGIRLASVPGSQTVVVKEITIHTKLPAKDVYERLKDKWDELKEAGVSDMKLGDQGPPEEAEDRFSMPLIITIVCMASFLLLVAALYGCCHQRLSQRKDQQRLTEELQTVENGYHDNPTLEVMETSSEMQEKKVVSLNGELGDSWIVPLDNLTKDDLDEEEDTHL
UniProt Q68D20: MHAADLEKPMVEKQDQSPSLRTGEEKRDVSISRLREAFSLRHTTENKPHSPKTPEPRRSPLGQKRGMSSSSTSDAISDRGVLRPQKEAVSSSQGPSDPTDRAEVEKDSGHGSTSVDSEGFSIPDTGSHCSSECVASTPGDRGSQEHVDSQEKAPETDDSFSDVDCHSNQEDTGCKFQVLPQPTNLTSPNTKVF
UniProt P11086: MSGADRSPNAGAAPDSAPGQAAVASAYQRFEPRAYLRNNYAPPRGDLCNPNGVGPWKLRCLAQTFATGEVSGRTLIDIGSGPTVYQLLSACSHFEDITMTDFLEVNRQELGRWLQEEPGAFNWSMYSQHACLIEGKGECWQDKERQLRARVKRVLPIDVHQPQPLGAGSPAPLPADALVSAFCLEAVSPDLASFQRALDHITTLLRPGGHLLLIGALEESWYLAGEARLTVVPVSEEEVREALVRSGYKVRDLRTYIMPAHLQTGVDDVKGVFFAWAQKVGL
UniProt Q9HBL7: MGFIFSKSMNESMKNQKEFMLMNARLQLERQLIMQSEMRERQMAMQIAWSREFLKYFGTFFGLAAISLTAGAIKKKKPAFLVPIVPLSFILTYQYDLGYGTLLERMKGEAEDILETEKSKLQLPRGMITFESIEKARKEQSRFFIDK
UniProt Q8NEY8: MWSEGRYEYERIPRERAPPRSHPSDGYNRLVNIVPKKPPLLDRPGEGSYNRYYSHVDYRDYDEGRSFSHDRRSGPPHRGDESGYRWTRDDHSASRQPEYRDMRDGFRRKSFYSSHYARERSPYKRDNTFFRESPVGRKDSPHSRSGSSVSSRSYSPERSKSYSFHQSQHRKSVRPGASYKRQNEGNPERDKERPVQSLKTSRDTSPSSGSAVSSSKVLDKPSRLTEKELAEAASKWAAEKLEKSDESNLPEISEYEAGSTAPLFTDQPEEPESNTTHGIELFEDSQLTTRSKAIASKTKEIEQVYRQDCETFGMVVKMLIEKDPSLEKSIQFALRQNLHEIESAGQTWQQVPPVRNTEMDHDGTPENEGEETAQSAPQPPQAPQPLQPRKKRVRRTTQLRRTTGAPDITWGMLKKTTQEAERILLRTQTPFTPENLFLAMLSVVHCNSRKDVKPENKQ
UniProt Q9BX97: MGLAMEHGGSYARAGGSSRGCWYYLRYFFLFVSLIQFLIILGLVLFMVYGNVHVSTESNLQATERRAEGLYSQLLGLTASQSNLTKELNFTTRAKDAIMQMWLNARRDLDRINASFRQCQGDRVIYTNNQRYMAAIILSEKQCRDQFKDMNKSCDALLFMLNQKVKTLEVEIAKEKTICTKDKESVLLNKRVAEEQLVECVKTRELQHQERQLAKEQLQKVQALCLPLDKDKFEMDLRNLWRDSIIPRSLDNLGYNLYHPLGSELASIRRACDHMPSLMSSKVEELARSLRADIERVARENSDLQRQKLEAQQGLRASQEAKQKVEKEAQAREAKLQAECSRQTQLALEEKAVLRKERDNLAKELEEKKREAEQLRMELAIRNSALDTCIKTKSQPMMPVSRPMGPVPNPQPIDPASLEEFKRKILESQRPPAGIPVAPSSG
UniProt Q9GZS1, whole entry, looked up: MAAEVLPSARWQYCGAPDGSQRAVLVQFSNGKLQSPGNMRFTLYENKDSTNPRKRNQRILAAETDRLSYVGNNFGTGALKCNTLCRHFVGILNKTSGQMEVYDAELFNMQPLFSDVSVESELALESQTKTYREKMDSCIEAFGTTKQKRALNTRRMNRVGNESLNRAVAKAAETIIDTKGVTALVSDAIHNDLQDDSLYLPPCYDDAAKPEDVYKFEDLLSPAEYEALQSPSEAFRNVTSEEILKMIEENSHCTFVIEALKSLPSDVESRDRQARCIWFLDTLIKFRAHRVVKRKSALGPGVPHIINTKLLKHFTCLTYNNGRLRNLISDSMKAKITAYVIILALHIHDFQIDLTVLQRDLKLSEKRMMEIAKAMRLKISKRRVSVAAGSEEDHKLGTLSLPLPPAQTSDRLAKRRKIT

What was measured:
Test in all cases: log2 fold change, soluble protein after heating vs DMSO (PISA); higher = thermal stabilisation; K562 cells, 10 uM, 30 min; active = over 0.2 and 3.5 SD of the protein, either way, in both replicates (recomputed)
[1] = compound: COC1=CC=C(C=C1)CN2C=CC3=C2C=C(C=C3)C(=O)NO
Summary of the method: (§1)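 For each measurement, 10 μM compound was applied for 30 min to K562 cells at 2×10^6 cells/mL. Aliquots were heated for 3 min across 48°C-58°C, pooled, and extracted in PBS with 0.5% NP-40 at 4°C; the supernatant after 21,000xg for 90 min was soluble protein. This was quantified by TMTpro 16plex LC-MS/MS with channel sums equalised, and thermal stability was reported relative to control samples from duplicates, on a log2 fold-change scale.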

idasanutlin = compound: COc1cc(C(=O)O)ccc1NC(=O)[C@@H]1N[C@@H](CC(C)(C)C)[C@](C#N)(c2ccc(Cl)cc2F)[C@H]1c1cccc(Cl)c1F [idasanutlin]
Summary of the method: as §1

alisertib = compound: COc1cc(Nc2ncc3c(n2)-c2ccc(Cl)cc2C(c2c(F)cccc2OC)=NC3)ccc1C(=O)O [alisertib]
Summary of the method: as §1

[2] = compound: COc1cccc2cc(-c3nc([C@H]4CC[C@H](C(=O)O)CC4)n4ncnc(N)c34)[nH]c12
Summary of the method: as §1

crizotinib = compound: C[C@@H](Oc1cc(-c2cnn(C3CCNCC3)c2)cnc1N)c1c(Cl)ccc(F)c1Cl [crizotinib]
Summary of the method: as §1

duvelisib = compound: C[C@H](Nc1ncnc2nc[nH]c12)c1cc2cccc(Cl)c2c(=O)n1-c1ccccc1 [duvelisib]
Summary of the method: as §1

[3] = compound: Cc1cc(SCc2sc(-c3ccc(C(F)(F)F)cc3)nc2C)ccc1OCC(=O)O
Summary of the method: as §1

doramapimod = compound: Cc1ccc(-n2nc(C(C)(C)C)cc2NC(=O)Nc2ccc(OCCN3CCOCC3)c3ccccc23)cc1 [doramapimod]
Summary of the method: as §1

ispinesib = compound: Cc1ccc(C(=O)N(CCCN)[C@@H](c2nc3cc(Cl)ccc3c(=O)n2Cc2ccccc2)C(C)C)cc1 [ispinesib]
Summary of the method: as §1

zotarolimus = compound: CO[C@H]1C[C@@H]2CC[C@@H](C)[C@@](O)(O2)C(=O)C(=O)N2CCCC[C@H]2C(=O)O[C@H]([C@H](C)C[C@@H]2CC[C@H](n3cnnn3)[C@H](OC)C2)CC(=O)[C@H](C)/C=C(\C)[C@@H](O)[C@@H](OC)C(=O)[C@H](C)C[C@H](C)/C=C/C=C/C=C/1C [zotarolimus]
Summary of the method: as §1

pictilisib = compound: CS(=O)(=O)N1CCN(Cc2cc3nc(-c4cccc5[nH]ncc45)nc(N4CCOCC4)c3s2)CC1 [pictilisib]
Summary of the method: as §1

[4] = compound: C[C@H](C1=CC=C(C=C1)C(=O)NC2=C3C=CNC3=NC=C2)N
Summary of the method: as §1

gandotinib = compound: Cc1cc(Nc2cc(CN3CCOCC3)c3nc(C)c(Cc4ccc(Cl)cc4F)n3n2)n[nH]1 [gandotinib]
Summary of the method: as §1

[5] = compound: COc1cc2nc(-c3cc(F)ccc3O)nc(N[C@@H]3CNC[C@H]3C(C)(C)O)c2cc1OC
Summary of the method: as §1

lapatinib = compound: CS(=O)(=O)CCNCc1ccc(-c2ccc3ncnc(Nc4ccc(OCc5cccc(F)c5)c(Cl)c4)c3c2)o1 [lapatinib]
Summary of the method: as §1

[6] = compound: C[C@@H]1COCCN1C2=NC(=NC(=C2)C3(CC3)S(=O)(=O)C)C4=C5C=CNC5=CC=C4
Summary of the method: as §1

filanesib = compound: CON(C)C(=O)N1N=C(c2cc(F)ccc2F)S[C@@]1(CCCN)c1ccccc1 [filanesib]
Summary of the method: as §1

gefitinib = compound: COc1cc2ncnc(Nc3ccc(F)c(Cl)c3)c2cc1OCCCN1CCOCC1 [gefitinib]
Summary of the method: as §1

[7] = compound: CS(=O)(=O)c1ccc(-c2cnc(N)c(C(=O)Nc3ccccc3)n2)cc1
Summary of the method: as §1

tozasertib = compound: Cc1cc(Nc2cc(N3CCN(C)CC3)nc(Sc3ccc(NC(=O)C4CC4)cc3)n2)n[nH]1 [tozasertib]
Summary of the method: as §1

Measured: log2 fold change

PLXND1 (UniProt Q9Y4D7)
inactive: [1] 0.292 | idasanutlin -0.168 | alisertib 0.002 | [2] 0.069 | crizotinib -0.203 | duvelisib 0.189 | [3] 0.229 | doramapimod 0.072 | ispinesib -0.877

POLE (UniProt Q07864)
inactive: zotarolimus 0 | pictilisib -0.042 | [4] 0.345 | gandotinib -0.023 | ispinesib -0.466

PLEKHJ1 (UniProt Q9NW61)
inactive: zotarolimus 0.039 | [5] -0.089 | lapatinib -0.076 | [6] -0.01 | [4] 0.207 | duvelisib -0.131 | [3] 0.37 | ispinesib -0.086

POT1 (UniProt Q9NUX5)
inactive: filanesib 0.288 | alisertib 0.329 | gefitinib 0.063 | [2] 0.282 | [7] -0.056 | [6] -0.105 | tozasertib -0.146 | ispinesib -0.024

POLB (UniProt P06746)
inactive: filanesib -0.155 | zotarolimus 0.215 | [5] 0.037 | gefitinib 0.199 | lapatinib -0.006 | pictilisib -0.022 | [7] -0.078 | [6] -0.003 | [4] 0.036 | gandotinib 0.081 | [3] -0.045 | ispinesib -0.1

PLSCR3 (UniProt Q9NRY6)
inactive: zotarolimus 0.024 | idasanutlin 0.144 | gefitinib 0.086 | pictilisib 0.087 | [4] -0.192 | gandotinib -0.105

POLR3GL (UniProt Q9BT43)
inactive: filanesib 0.024 | alisertib 0.021 | [2] 0.111 | [7] 0.076

PPIA isoform 2 (UniProt P62937)
inactive: zotarolimus -0.055 | idasanutlin -0.458 | alisertib -0.381 | [5] 0.173 | gefitinib -0.008 | [2] -0.033 | lapatinib -0.162 | pictilisib -0.007 | [6] 0.107 | [4] 0.115 | duvelisib 0.132 | gandotinib -0.17 | tozasertib 0.001 | [3] -0.084 | ispinesib -0.245

Retrieved one by one from the entries so far (2):
POLR3GL (UniProt Q9BT43)
inactive: filanesib 0.024 | alisertib 0.021 | [2] 0.111 | [7] 0.076

POLB (UniProt P06746)
inactive: filanesib -0.155 | zotarolimus 0.215 | [5] 0.037 | gefitinib 0.199 | lapatinib -0.006 | pictilisib -0.022 | [7] -0.078 | [6] -0.003 | [4] 0.036 | gandotinib 0.081 | [3] -0.045 | ispinesib -0.1

(next part)

PODXL (UniProt O00592)
inactive: pictilisib 0.865 | gandotinib -0.09

PMS2CL (UniProt Q68D20)
inactive: alisertib -0.254 | gefitinib 0.033 | [2] -0.099 | [6] -0.091 | ispinesib 0.105

PNMT (UniProt P11086)
inactive: filanesib -0.251 | zotarolimus 0.031 | idasanutlin -0.031 | [5] 0.21 | lapatinib -0.003 | [7] -0.05 | [4] 0.12 | duvelisib 0.079 | tozasertib -0.068 | [3] 0.147

PLGRKT (UniProt Q9HBL7)
inactive: filanesib 0.147 | zotarolimus 0.093 | idasanutlin 0.071 | alisertib 0.116 | gefitinib -0.017 | [2] 0.069 | pictilisib -0.001 | [7] -0.012 | [6] 0.309 | [4] -0.092 | duvelisib 0.185 | gandotinib -0.049 | tozasertib 0.189 | [3] -0.057

PPHLN1 isoform 3 (UniProt Q8NEY8)
inactive: zotarolimus 0.082 | [4] -0.138 | tozasertib -0.149

PLVAP (UniProt Q9BX97)
inactive: filanesib -0.078 | zotarolimus -0.424 | idasanutlin -0.11 | alisertib -0.092 | [5] 0.116 | gefitinib -0.011 | [2] 0.006 | lapatinib 0.036 | pictilisib 0.012 | [7] -0.058 | [6] 0.335 | [4] 0.226 | duvelisib 0.162 | gandotinib -0.198 | tozasertib 0.115 | [3] -0.125 | ispinesib 0.02

POLR2L (UniProt P62875)
inactive: filanesib 0.085 | zotarolimus 0.035 | idasanutlin 0.041 | alisertib -0.006 | [5] 0.122 | gefitinib -0.05 | [2] -0.001 | lapatinib 0.066 | pictilisib 0.027 | [7] -0.043 | [6] -0.046 | [4] 0.09 | duvelisib 0.029 | gandotinib 0.114 | tozasertib 0.063 | [3] -0.021 | ispinesib -0.104

POLR1E isoform 1 (UniProt Q9GZS1)
inactive: idasanutlin 0.156 | alisertib 0.036 | [5] -0.095 | [2] -0.206 | lapatinib 0.154 | duvelisib -0.018 | [3] 0.072 | ispinesib -0.531

POLR2J (UniProt P52435)
inactive: zotarolimus -0.108 | idasanutlin -0.148 | alisertib 0.642 | gefitinib 0.001 | [2] -0.026 | pictilisib 0.006 | [6] 0.195 | [4] 0.098 | duvelisib 0.051 | gandotinib 0.194 | [3] 0.033
